Some of the results follow. Single values are uncertain, as repeats are few or missing.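 Imaging used 1,536-well plates; nuclei positive for cleaved PARP by antibody were divided by total DNA-stained nuclei to yield the apoptosis fraction. Doses for screening kept most cells viable, and cell lines differ markedly in resting and induced cleaved-PARP levels.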
Key:
Assay in all cases: cleaved PARP positive nuclei fraction relative to DMSO control; melanoma cells; higher = more apoptosis
Details in all cases: library dose: low library concentration; 72 h
[1] = tested on: MZ2-MEL
[2] = tested on: MeWo
[3] = tested on: RPMI7951
[4] = tested on: RVH-421
[5] = tested on: SkMel28
[6] = tested on: SkMel2
[7] = tested on: SkMel30
[8] = tested on: SkMel5
[9] = tested on: UACC257
[10] = tested on: UACC62
[11] = tested on: WM115
[12] = tested on: WM1716
[13] = tested on: WM1745
[14] = tested on: WM3526
[15] = tested on: WM3619
[16] = tested on: WM451Lu

| SMILES | cleaved PARP positive nuclei fraction [1] | cleaved PARP positive nuclei fraction [2] | cleaved PARP positive nuclei fraction [3] | cleaved PARP positive nuclei fraction [4] | cleaved PARP positive nuclei fraction [5] | cleaved PARP positive nuclei fraction [6] | cleaved PARP positive nuclei fraction [7] | cleaved PARP positive nuclei fraction [8] | cleaved PARP positive nuclei fraction [9] | cleaved PARP positive nuclei fraction [10] | cleaved PARP positive nuclei fraction [11] | cleaved PARP positive nuclei fraction [12] | cleaved PARP positive nuclei fraction [13] | cleaved PARP positive nuclei fraction [14] | cleaved PARP positive nuclei fraction [15] | cleaved PARP positive nuclei fraction [16] |
| --- | --- | --- | --- | --- | --- | --- | --- | --- | --- | --- | --- | --- | --- | --- | --- | --- |
| CS(=O)(=O)CCNCc1ccc(-c2ccc3ncnc(Nc4ccc(OCc5cccc(F)c5)c(Cl)c4)c3c2)o1 [lapatinib] + O=C(Nc1cccc(Cl)c1)Nc1ncc(CCNc2ncnc3ccsc23)s1 [SNS314] (first compound 0.8 µM, partner dose 0.0008 µM) | 182% | 106% | 66% | 128% | 130% | 69.6% | 70.7% | 68.3% | 240% | 43.4% | 143% | 172% | 92.7% | 55.7% | 84.2% | 75.6% |
| O=C(O)[C@@H]1[O][Sb](=[O])([O][Sb]2(=[O])[O][C@H]([C@H](O)CO)[C@H](O)[C@H](C(=O)O)[O]2)[O][C@H]([C@H](O)CO)[C@@H]1O (some centres undefined) [stibogluconate] + CN(NC(=O)CC(=O)NN(C)C(=S)c1ccccc1)C(=S)c1ccccc1 [STA4783] (first compound 2 µM, partner dose 0.006 µM) | 116% | 128% | 71.6% | 36.4% | 132% | 89.3% | 130% | 84% | 44.2% | 199% | 77.8% | 211% | 98.6% | 60.5% | 169% | 21.5% |
| Nc1ncn([C@H]2C[C@H](O)[C@@H](CO)O2)c(=O)n1 [decitabine] + COc1cc(Nc2ncc(F)c(Nc3ccc4c(n3)NC(=O)C(C)(C)O4)n2)cc(OC)c1OC [Tamatinib] (first compound 0.1 µM, partner dose 0.4 µM) | 126% | 72% | 140% | 46.4% | 105% | 89.8% | 66.6% | 153% | 185% | 225% | 227% | 206% | 127% | 68.1% | 90.3% | 100% |
| Nc1ccn([C@@H]2O[C@H](CO)[C@@H](O)C2(F)F)c(=O)n1 [gemcitabine] + COc1cc(Nc2ncc(F)c(Nc3ccc4c(n3)NC(=O)C(C)(C)O4)n2)cc(OC)c1OC [Tamatinib] (first compound 0.0004 µM, partner dose 0.4 µM) | 126% | 74.3% | 82.4% | 26.4% | 281% | 94.7% | 70.5% | 70.6% | 62.6% | 83.4% | 77.2% | 55.4% | 152% | 68.7% | 103% | 54.5% |
| O=C(O)c1ccc2c(c1)nc(Nc1cccc(Cl)c1)c1ccncc12 + COc1ccc2c(c1)CCC1C2CCC2(C)C(NCCCCCCN3C(=O)C=CC3=O)CCC12 [U73122] (first compound 0.4 µM, partner dose 0.4 µM) | 110% | 86.2% | 143% | 180% | 104% | 66.7% | 71% | 146% | 49.2% | 90.1% | 106% | 181% | 198% | 170% | 87.9% | 67.9% |
| CNC(=O)c1cc(Oc2ccc(NC(=O)Nc3ccc(Cl)c(C(F)(F)F)c3)cc2)ccn1 [sorafenib] + Cc1cc(N2CCOCC2)cc2[nH]c(-c3c(NC[C@@H](O)c4cccc(Cl)c4)cc[nH]c3=O)nc12 [BMS536924] (first compound 0.4 µM, partner dose 0.2 µM) | 202% | 70.2% | 99.2% | 79.2% | 66.7% | 168% | 245% | 156% | 37.5% | 64.6% | 31.9% | 58.5% | 116% | 29.2% | 110% | 86.5% |
| CS(=O)(=O)CCNCc1ccc(-c2ccc3ncnc(Nc4ccc(OCc5cccc(F)c5)c(Cl)c4)c3c2)o1 [lapatinib] + O=C(Nc1ccccc1)c1cc([N+](=O)[O-])ccc1Cl [GW9662] (first compound 0.8 µM, partner dose 2 µM) | 189% | 138% | 43.6% | 29.5% | 198% | 120% | 138% | 225% | 212% | 56.9% | 157% | 215% | 105% | 31.8% | 91% | 123% |
| CNC(=O)c1cc(Oc2ccc(NC(=O)Nc3ccc(Cl)c(C(F)(F)F)c3)cc2)ccn1 [sorafenib] + Oc1nc(-c2ccc(C(F)(F)F)cc2)nc2c1CSCC2 [XAV939] (first compound 0.4 µM, partner dose 2 µM) | 101% | 39.7% | 39.6% | 71.8% | 78.3% | 95.8% | 124% | 41.7% | 189% | 54.3% | 60.4% | 81.2% | 99.6% | 67% | 103% | 52.3% |
| Nc1ccn([C@@H]2O[C@H](CO)[C@@H](O)C2(F)F)c(=O)n1 [gemcitabine] + NC(=O)Nc1cc(-c2cccc(F)c2)sc1C(=O)N[C@H]1CCCNC1 [AZD7762] (first compound 0.0004 µM, partner dose 0.02 µM) | 187% | 58.8% | 132% | 73.7% | 175% | 91.9% | 53.8% | 48.3% | 91.6% | 87.3% | 79% | 284% | 183% | 65.9% | 315% | 84.3% |
| Nc1ccn([C@@H]2O[C@H](CO)[C@@H](O)C2(F)F)c(=O)n1 [gemcitabine] + COc1ccc2c(c1)CCC1C2CCC2(C)C(NCCCCCCN3C(=O)C=CC3=O)CCC12 [U73122] (first compound 0.0004 µM, partner dose 0.4 µM) | 150% | 110% | 41.5% | 102% | 46.4% | 81.7% | 82.5% | 66.3% | 59.8% | 177% | 77.5% | 102% | 124% | 182% | 143% | 36.8% |
| CCCS(=O)(=O)Nc1ccc(F)c(C(=O)c2c[nH]c3ncc(Cl)cc23)c1F + COC(=O)c1sccc1S(=O)(=O)Nc1ccc(Nc2ccccc2)cc1OC [GSK0660] (first compound 0.08 µM, partner dose 1 µM) | 22.6% | 44.8% | 63.8% | 150% | 113% | 81.4% | 86.5% | 139% | 108% | 552% | 406% | 54.5% | 109% | 120% | 97.2% | 45% |
| CS(=O)(=O)CCNCc1ccc(-c2ccc3ncnc(Nc4ccc(OCc5cccc(F)c5)c(Cl)c4)c3c2)o1 [lapatinib] + COC(=O)c1sccc1S(=O)(=O)Nc1ccc(Nc2ccccc2)cc1OC [GSK0660] (first compound 0.8 µM, partner dose 1 µM) | 129% | 99.1% | 34.6% | 154% | 38% | 64.2% | 76.2% | 83.3% | 123% | 47.4% | 62.1% | 99.2% | 78.4% | 74.5% | 94.4% | 35.5% |
| CN1CCN(c2ccc3nc(-c4c(N)c5c(F)cccc5[nH]c4=O)[nH]c3c2)CC1 [Dovitinib] + C[C@@H]1CCN(C(=O)CC#N)C[C@@H]1N(C)c1ncnc2[nH]ccc12 [CP690550] (first compound 0.1 µM, partner dose 1 µM) | 216% | 54.9% | 92% | 43.5% | 242% | 63.3% | 56.9% | 94.4% | 92.5% | 187% | 94.9% | 68.2% | 107% | 87.3% | 95.1% | 116% |
| C[C@@H](Oc1cc(-c2cnn(C3CCNCC3)c2)cnc1N)c1c(Cl)ccc(F)c1Cl [Crizotinib] + Cc1cc([N+](=O)[O-])ccc1NS(=O)(=O)c1cc(Cl)ccc1Cl [FH535] (first compound 0.2 µM, partner dose 1 µM) | 233% | 75.3% | 145% | 142% | 74.7% | 84.2% | 83.6% | 78.4% | 240% | 168% | 192% | 140% | 93.2% | 225% | 86.7% | 73.2% |

4 entries from above in a different format.
SMILES,cleaved PARP positive nuclei fraction [1],cleaved PARP positive nuclei fraction [2],cleaved PARP positive nuclei fraction [3],cleaved PARP positive nuclei fraction [4],cleaved PARP positive nuclei fraction [5],cleaved PARP positive nuclei fraction [6],cleaved PARP positive nuclei fraction [7],cleaved PARP positive nuclei fraction [8],cleaved PARP positive nuclei fraction [9],cleaved PARP positive nuclei fraction [10],cleaved PARP positive nuclei fraction [11],cleaved PARP positive nuclei fraction [12],cleaved PARP positive nuclei fraction [13],cleaved PARP positive nuclei fraction [14],cleaved PARP positive nuclei fraction [15],cleaved PARP positive nuclei fraction [16]
"CNC(=O)c1cc(Oc2ccc(NC(=O)Nc3ccc(Cl)c(C(F)(F)F)c3)cc2)ccn1 [sorafenib] + Oc1nc(-c2ccc(C(F)(F)F)cc2)nc2c1CSCC2 [XAV939] (first compound 0.4 µM, partner dose 2 µM)",101%,39.7%,39.6%,71.8%,78.3%,95.8%,124%,41.7%,189%,54.3%,60.4%,81.2%,99.6%,67%,103%,52.3%
"Nc1ccn([C@@H]2O[C@H](CO)[C@@H](O)C2(F)F)c(=O)n1 [gemcitabine] + NC(=O)Nc1cc(-c2cccc(F)c2)sc1C(=O)N[C@H]1CCCNC1 [AZD7762] (first compound 0.0004 µM, partner dose 0.02 µM)",187%,58.8%,132%,73.7%,175%,91.9%,53.8%,48.3%,91.6%,87.3%,79%,284%,183%,65.9%,315%,84.3%
"Nc1ccn([C@@H]2O[C@H](CO)[C@@H](O)C2(F)F)c(=O)n1 [gemcitabine] + COc1ccc2c(c1)CCC1C2CCC2(C)C(NCCCCCCN3C(=O)C=CC3=O)CCC12 [U73122] (first compound 0.0004 µM, partner dose 0.4 µM)",150%,110%,41.5%,102%,46.4%,81.7%,82.5%,66.3%,59.8%,177%,77.5%,102%,124%,182%,143%,36.8%
"CCCS(=O)(=O)Nc1ccc(F)c(C(=O)c2c[nH]c3ncc(Cl)cc23)c1F + COC(=O)c1sccc1S(=O)(=O)Nc1ccc(Nc2ccccc2)cc1OC [GSK0660] (first compound 0.08 µM, partner dose 1 µM)",22.6%,44.8%,63.8%,150%,113%,81.4%,86.5%,139%,108%,552%,406%,54.5%,109%,120%,97.2%,45%
